No constants are given. Whether binding was seen depends on the method and setting. For some of these results: In cells and extracts the contact can be indirect. Some results given as binding are weak or reduced against the parent protein; the word gives no strength.
Legend:
[1] = biological target: High mobility group box B protein HMGB1 (Y2H bait) (UniProt P09429); assay: two-hybrid; Matchmaker Gold Yeast Two-Hybrid System; HMGB1 or HMGB2 fused to the GAL4 DNA-binding domain as bait, cDNA library from ovarian tumor tissue (primary transitional cell carcinoma) fused to the GAL4 activation domain as prey; mating of Y187 and Y2HGold; positives by at least three different reporter genes, clones sequenced
[2] = biological target: High mobility group box B protein HMGB1 (Y2H bait) (UniProt P09429); assay: two-hybrid; Matchmaker Gold Yeast Two-Hybrid System; HMGB1 or HMGB2 fused to the GAL4 DNA-binding domain as bait, cDNA library from SKOV-3 cells fused to the GAL4 activation domain as prey; mating of Y187 and Y2HGold; positives by at least three different reporter genes, clones sequenced
[3] = biological target: T1, High mobility group box B protein HMGB2 (Y2H bait) (UniProt P26583); assay: two-hybrid; Matchmaker Gold Yeast Two-Hybrid System; HMGB1 or HMGB2 fused to the GAL4 DNA-binding domain as bait, cDNA library from ovarian tumor tissue (primary transitional cell carcinoma) fused to the GAL4 activation domain as prey; mating of Y187 and Y2HGold; positives by at least three different reporter genes, clones sequenced
T1 sequence: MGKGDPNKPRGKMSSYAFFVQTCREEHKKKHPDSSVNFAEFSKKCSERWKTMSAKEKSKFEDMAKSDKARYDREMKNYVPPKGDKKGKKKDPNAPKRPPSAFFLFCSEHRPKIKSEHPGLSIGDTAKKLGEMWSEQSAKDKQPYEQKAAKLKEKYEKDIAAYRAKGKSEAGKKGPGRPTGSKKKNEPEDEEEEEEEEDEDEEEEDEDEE

Sequences of proteins named here, by UniProt entry; tags and fusion partners are left off. A change or cut given only in a name is not applied to a line headed by its entry. Residues count along the entry.
UniProt P09429: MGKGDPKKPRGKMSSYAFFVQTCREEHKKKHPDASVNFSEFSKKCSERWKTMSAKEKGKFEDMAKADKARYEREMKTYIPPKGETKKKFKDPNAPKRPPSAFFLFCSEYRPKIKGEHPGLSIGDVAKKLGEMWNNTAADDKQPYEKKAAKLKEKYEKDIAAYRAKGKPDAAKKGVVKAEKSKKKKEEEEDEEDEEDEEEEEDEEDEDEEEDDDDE
UniProt Q8WVS4, residues 170-336: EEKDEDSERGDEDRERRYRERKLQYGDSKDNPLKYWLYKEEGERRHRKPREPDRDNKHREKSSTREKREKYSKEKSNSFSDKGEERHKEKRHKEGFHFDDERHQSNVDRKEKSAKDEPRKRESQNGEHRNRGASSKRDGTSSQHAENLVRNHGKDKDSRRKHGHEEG
UniProt Q96KR1, residues 294-722: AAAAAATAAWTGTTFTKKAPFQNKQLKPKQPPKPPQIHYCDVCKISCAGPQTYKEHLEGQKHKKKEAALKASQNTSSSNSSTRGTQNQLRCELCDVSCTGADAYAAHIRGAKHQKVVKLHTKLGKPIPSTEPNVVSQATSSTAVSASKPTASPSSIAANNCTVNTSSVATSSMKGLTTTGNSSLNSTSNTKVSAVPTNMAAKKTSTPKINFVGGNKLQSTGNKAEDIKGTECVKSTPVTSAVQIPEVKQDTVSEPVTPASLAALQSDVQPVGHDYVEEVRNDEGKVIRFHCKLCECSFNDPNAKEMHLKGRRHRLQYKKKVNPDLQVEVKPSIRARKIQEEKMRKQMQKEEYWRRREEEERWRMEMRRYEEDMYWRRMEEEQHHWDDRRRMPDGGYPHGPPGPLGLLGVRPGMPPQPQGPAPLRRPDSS
UniProt Q8N668: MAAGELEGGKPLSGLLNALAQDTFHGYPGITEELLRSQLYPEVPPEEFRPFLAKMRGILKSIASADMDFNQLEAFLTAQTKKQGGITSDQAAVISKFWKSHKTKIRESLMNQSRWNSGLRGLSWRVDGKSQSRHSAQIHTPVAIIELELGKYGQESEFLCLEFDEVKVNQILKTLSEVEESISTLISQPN
UniProt Q9P287, residues 8-257: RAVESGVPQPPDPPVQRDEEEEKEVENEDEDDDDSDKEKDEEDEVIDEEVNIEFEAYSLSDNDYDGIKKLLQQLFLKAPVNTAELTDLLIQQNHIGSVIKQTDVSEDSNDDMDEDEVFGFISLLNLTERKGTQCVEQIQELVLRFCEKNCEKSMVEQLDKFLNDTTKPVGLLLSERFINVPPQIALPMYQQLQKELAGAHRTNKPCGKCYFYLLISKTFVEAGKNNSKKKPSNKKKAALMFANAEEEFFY
UniProt Q15365, residues 26-202: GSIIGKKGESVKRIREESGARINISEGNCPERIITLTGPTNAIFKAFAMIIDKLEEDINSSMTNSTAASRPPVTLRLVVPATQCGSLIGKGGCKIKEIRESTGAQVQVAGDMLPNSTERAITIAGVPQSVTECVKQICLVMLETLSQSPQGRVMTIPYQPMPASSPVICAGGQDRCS
UniProt Q13464, residues 141-197: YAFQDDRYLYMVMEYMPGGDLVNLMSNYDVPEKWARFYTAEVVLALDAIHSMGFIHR

[4] = biological target: T1, High mobility group box B protein HMGB2 (Y2H bait); assay: two-hybrid; Matchmaker Gold Yeast Two-Hybrid System; HMGB1 or HMGB2 fused to the GAL4 DNA-binding domain as bait, cDNA library from SKOV-3 cells fused to the GAL4 activation domain as prey; mating of Y187 and Y2HGold; positives by at least three different reporter genes, clones sequenced
[5] = biological target: T2, HMGB2 (endogenous) (human (endogenous in SKOV-3 and PEO1)) (UniProt P26583); assay: co-IP; SKOV-3 and PEO1 cells cross-linked with 1% formaldehyde for 10 min; 16 mg total protein extract immunoprecipitated with HMGB2 rabbit polyclonal antibody on dynabeads-protein A (IgG as control); Western blot for HMGB2, MIEN1 and NOP53; lysis buffer 50 mM Tris-HCl pH 8, 150 mM NaCl, 0.1% NP-40, 1 mM EDTA
T2 sequence: T1 sequence

For “60S ribosomal protein L29 (from UniProt P47914 36-143) (domain or fragment)”, the binding [1] was “binds”.

In the case of “WD repeat-containing protein 60 (from UniProt Q8WVS4 170-336) (domain or fragment)”, the binding [2] is reported as “binds”.

In the case of “Zinc finger RNA-binding protein (from UniProt Q96KR1 294-722) (domain or fragment)”, the binding [3] is reported as “binds”.

“COMM domain-containing protein 1 (clone 4-189, tumor tissue library) (from UniProt Q8N668 4-189) (domain or fragment)” was tested, and the binding [3] was “binds”.

For “COMM domain-containing protein 1 (clone 2-189, SKOV-3 library) (from UniProt Q8N668 2-189) (domain or fragment)”, the binding [4] was “binds”.

With “BRCA2 and CDKN1A-interacting protein (from UniProt Q9P287 8-257) (domain or fragment)” the binding [4] was “binds”.

With “Poly (rC)-binding protein 1 (from UniProt Q15365 26-202) (domain or fragment)” the binding [3] was “binds”.

“Rho-associated protein kinase 1 (from UniProt Q13464 141-197) (domain or fragment)” was tested, and the binding [4] was “binds”.

B1: A-kinase-interacting protein 1 (domain or fragment, UniProt Q9NQ31 29-210)
chain: LERAKRRAVDWHALERPKGCMGVLAREAPHLEKQPAAGPQRVLPGEREERPPTLSASFRTMAEFMDYTSSQCGKYYSSVPEEGGATHVYRYHRGESKLHMCLDIGNGQRKDRKKTSLGPGGSYQISEHAPEASQPAENISKDLYIEVYPGTYSVTVGSNDLTKKTHVVAVDSGQSVDLVFPV
B1 was tested, and the binding [2] was “binds”.

B2: Migration and invasion enhancer 1 (clone 1-116) (protein, UniProt Q9BRT3 1-115)
chain: MSGEPGQTSVAPPPEEVEPGSGVRIVVEYCEPCGFEATYLELASAVKEQYPGIEIESRLGGTGAFEIEINGQLVFSKLENGGFPYEKDLIEAIRRASNGETLEKITNSRPPCVIL
In the case of B2, the binding [4] is reported as “binds” and the binding [3] is reported as “binds”.

B3: Splicing factor U2AF 35 kDa subunit (domain or fragment, UniProt Q01081 35-202)
chain: RLHNKPTFSQTIALLNIYRNPQNSSQSADGLRCAVSDVEMQEHYDEFFEEVFTEMEEKYGEVEEMNVCDNLGDHLVGNVYVKFRREEDAEKAVIDLNNRWFNGQPIHAELSPVTDFREACCRQYEMGECTRGGFCNFMHLKPISRELRRELYGRRRKKHRSRSRSRER
B3 was tested, and the binding [4] was “binds”.

B4: Zinc finger protein 668 (domain or fragment, UniProt Q96K58 16-239)
chain: KRSGRRYKCLSCTKTFPNAPRAARHAATHGPADCSEEVAEVKPKPETEAKAEEASGEKVSGSAAKPRPYACPLCPKAYKTAPELRSHGRSHTGEKPFPCPECGRRFMQPVCLRVHLASHAGELPFRCAHCPKAYGALSKLKIHQRGHTGERPYACADCGKSFADPSVFRKHRRTHAGLRPYSCERCGKAYAELKDLRNHERSHTGERPFLCSECGKSFSRSSSL
B4 was tested, and the binding [4] was “binds”.

B5: Dystroglycan (domain or fragment, UniProt Q14118 311-516)
chain: RRQIHATPTPVTAIGPPTTAIQEPPSRIVPTPTSPAIAPPTETMAPPVRDPVPGKPTVTIRTRGAIIQTPTLGPIQPTRVSEAGTTVPGQIRPTMTIPGYVEPTAVATPPTTTTKKPRVSTPKPATPSTDSTTTTTRRPTKKPRTPRPVPRVTTKVSITRLETASPPTRIRTTTSGVPRGGEPNQRPELKNHIDRVDAWVGTYFEV
B5 was tested, and the binding [1] was “binds”.

B6: Remodeling and spacing factor 1 (domain or fragment, UniProt Q96T23 616-799)
chain: ESEKPGSPEAAETSPPSNIIDHCEKLASEKEVVECQSTSTVGGQSVKKVDLETLKEDSEFTKVEMDNLDNAQTSGIEEPSETKGSMQKSKFKYKLVPEEETTASENTEITSERQKEGIKLTIRISSRKKKPDSPPKVLEPENKQEKTEKEEEKTNVGRTLRRSPRISRPTAKVAEIRDQKADKK
In the case of B6, the binding [1] is reported as “binds”.

B7: TGM2 (domain or fragment, UniProt P21980 377-480)
chain: RAIKEGDLSTKYDAPFVFAEVNADVVDWIQQDDGSVHKSINRSLIVGLKISTKSVGRDEREDITHTYKYPEGSSEEREAFTRANHLNKLAEKEETGMAMRIRVG
B7 was tested, and the binding [1] was “binds”.

B8: Keratin, type II cytoskeletal 7 (domain or fragment, UniProt P08729 102-289)
chain: FASFIDKVRFLEQQNKLLETKWTLLQEQKSAKSSRLPDIFEAQIAGLRGQLEALQVDGGRLEAELRSMQDVVEDFKNKYEDEINHRTAAENEFVVLKKDVDAAYMSKVELEAKVDALNDEINFLRTLNETELTELQSQISDTSVVLSMDNSRSLDLDGIIAEVKAQYEEMAKCSRAEAEAWYQTKFET
With B8 the binding [2] was “binds”.

B9: TBC1 domain family member 25 (domain or fragment, UniProt Q3MII6 309-366)
chain: PHLRALHDLLTTYAVTHPQVSYCQGMSDLASPILAVMDHEGHAFVCFCGIMKRLAANF
In the case of B9, the binding [3] is reported as “binds”.

EEEEEEGTYHCTECEDSFDNLGELHGHFMLHARGEV (domain or fragment, UniProt Q96B54 153-188) [Zinc finger protein 428] was tested, and the binding [3] was “binds”.

B10: Migration and invasion enhancer 1 (endogenous) (protein, UniProt Q9BRT3 1-115)
chain: B2 chain
B10 was tested, and the binding [5] was “binds”.

B11: ATF7IP (domain or fragment, UniProt Q6VMQ6 8-250)
chain: QKKVFKARKTMRVSDRQQLEAVYKVKEELLKTDVKLLNGNHENGDLDPTSPLENMDYIKDKEEVNGIEEICFDPEGSKAEWKETPCILSVNVKNKQDDDLNCEPLSPHNITPEPVSKLPAEPVSGDPAPGDLDAGDPASGVLASGDSTSGDPTSSEPSSSDAASGDATSGDAPSGDVSPGDATSGDATADDLSSGDPTSSDPIPGEPVPVEPISGDCAADDIASSEITSVDLASGAPASTDPA
In the case of B11, the binding [2] is reported as “binds”.

B12: E3 ubiquitin-protein ligase UHRF2 (domain or fragment, UniProt Q96PU4 157-277)
chain: GQSRGKTPLKNGSSCKRTNGNIKHKSKENTNKLDSVPSTSNSDCVAADEDVIYHIQYDEYPESGTLEMNVKDLRPRARTILKWNELNVGDVVMVNYNVESPGQRGFWFDAEITTLKTISRT
B12 was tested, and the binding [2] was “binds”.
